Assay [1] has as its target T1, cDMP1, cleaved 57 kDa C-terminal fragment of DMP1 (mouse bone extracts) (mouse) (UniProt O55188).
T1 sequence (highly phosphorylated (as printed, sites not given), looked up): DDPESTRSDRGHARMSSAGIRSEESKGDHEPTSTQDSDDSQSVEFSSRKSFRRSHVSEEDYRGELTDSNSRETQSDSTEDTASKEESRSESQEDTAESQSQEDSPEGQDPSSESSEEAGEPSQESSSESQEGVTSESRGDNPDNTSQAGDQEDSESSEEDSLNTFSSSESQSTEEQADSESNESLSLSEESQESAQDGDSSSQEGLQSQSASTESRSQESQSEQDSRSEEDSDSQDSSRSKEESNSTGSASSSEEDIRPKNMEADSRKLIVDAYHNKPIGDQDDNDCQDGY
The experiment in a line: coIP, anti-PHEX antibody-coated magnetic beads, WT and DMP1ko/cDMP1Tg mouse bone extracts, Western blot with Ab to the C-terminus region of DMP1. Background: A western blot detects proteins with antibodies after separation by electrophoresis.

Amino acid sequences for entries named in this document (tags omitted). Residues count along the entry.
UniProt P70669: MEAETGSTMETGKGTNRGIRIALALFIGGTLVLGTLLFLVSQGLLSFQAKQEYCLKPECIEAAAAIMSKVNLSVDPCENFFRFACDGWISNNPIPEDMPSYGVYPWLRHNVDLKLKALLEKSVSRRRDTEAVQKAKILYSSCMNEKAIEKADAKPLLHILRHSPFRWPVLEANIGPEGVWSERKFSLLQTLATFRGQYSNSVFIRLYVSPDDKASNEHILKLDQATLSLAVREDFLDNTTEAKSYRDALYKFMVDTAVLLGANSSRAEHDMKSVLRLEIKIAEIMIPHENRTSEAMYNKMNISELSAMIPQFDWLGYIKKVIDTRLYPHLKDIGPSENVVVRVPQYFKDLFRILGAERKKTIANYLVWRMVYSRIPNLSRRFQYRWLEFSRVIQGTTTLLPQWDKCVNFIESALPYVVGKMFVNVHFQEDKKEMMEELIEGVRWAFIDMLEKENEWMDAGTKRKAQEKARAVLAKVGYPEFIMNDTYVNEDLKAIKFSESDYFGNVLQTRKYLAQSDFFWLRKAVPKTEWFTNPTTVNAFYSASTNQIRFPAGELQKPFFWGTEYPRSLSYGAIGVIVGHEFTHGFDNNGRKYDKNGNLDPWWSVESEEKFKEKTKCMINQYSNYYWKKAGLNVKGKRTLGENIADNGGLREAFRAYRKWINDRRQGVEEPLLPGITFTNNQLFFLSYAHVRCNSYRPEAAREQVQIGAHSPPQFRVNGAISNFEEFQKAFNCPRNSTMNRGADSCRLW
UniProt P78562, residues 46-749: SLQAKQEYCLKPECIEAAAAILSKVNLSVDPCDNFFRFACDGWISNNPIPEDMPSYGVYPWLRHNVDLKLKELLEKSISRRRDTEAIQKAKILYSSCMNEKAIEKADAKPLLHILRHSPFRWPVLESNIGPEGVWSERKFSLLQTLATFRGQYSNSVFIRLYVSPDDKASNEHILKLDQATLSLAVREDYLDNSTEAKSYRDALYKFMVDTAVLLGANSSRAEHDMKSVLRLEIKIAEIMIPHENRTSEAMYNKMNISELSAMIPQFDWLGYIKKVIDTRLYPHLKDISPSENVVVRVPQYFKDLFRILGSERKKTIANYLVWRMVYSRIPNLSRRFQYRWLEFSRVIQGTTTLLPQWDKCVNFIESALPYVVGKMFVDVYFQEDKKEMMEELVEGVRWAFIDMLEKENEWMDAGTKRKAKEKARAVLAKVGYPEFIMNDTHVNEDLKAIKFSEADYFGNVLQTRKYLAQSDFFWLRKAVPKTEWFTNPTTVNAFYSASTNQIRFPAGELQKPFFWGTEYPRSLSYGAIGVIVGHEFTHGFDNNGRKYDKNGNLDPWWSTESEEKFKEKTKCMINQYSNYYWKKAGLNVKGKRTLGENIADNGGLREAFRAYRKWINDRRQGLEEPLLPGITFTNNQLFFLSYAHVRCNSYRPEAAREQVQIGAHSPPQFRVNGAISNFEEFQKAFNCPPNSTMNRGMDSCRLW

Assay [2] concerns the target T1, cDMP1, cleaved 57 kDa C-terminal fragment of DMP1 (mouse bone extracts) (mouse). The experiment in a line: coIP, anti-PHEX antibody-coated beads, mouse bone extracts, Western blot for DMP1.
Assay [3] has as its target T2, human recombinant DMP1 (human) (UniProt Q13316).
T2 sequence (looked up): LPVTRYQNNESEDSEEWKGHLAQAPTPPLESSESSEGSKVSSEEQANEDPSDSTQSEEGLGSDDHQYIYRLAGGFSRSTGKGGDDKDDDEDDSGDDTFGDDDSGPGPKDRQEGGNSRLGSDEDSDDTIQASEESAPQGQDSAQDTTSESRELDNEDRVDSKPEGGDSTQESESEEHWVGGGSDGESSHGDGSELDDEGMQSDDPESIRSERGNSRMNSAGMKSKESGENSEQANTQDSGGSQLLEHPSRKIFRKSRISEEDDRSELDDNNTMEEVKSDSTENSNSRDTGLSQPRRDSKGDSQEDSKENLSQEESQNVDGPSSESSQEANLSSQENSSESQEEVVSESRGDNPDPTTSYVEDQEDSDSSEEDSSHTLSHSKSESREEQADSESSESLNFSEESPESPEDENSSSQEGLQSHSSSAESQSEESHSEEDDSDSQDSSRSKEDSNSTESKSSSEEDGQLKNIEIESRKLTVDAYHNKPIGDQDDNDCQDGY
The assay can be described thus: SPR, human recombinant PHEX and DMP1. (SPR reads the build-up and loss of mass on a sensor chip optically.)

Assay [4] deals with T2, human recombinant DMP1 (human). The experiment in a line: SPR, DMP1 attached to the sensor, PHEX flowed over.

These are yes or no findings as the source states them, for the method shown. For some of these results: In cells and extracts the contact can be indirect. Some results given as binding are weak or reduced against the parent protein; the word gives no strength.

Take “PHEX (phosphate-regulating gene with homology to endopeptidase on the X chromosome), endogenous mouse protein (from UniProt P70669 1-749) (enzyme)”: the binding entry in assay [1] and in assay [2] was “binds” in each case.

“soluble human recombinant PHEX (from UniProt P78562 46-749) (enzyme)”: the binding entry in assay [3] and in assay [4] was “binds” throughout.

Values taken from US20170121382A1.
